# Data reported in patent US20220110331A1, “COMPOSITION FOR PROMOTING GROWTH OF EFFECTIVE MICROORGANISM AND CONTROLLING PLANT DISEASE USING PREBIOTICS, AND USE THEREOF” (priority 2018, published 2022).
# Some results were stated once for a whole list of compounds, not compound by compound.
# Tested on: bloom blight
# Experiment: Strawberry field test, incidence rate of bloom blight
# Assay type: in vivo, Cladosporium cladosporioides
# Conditions: foliar application of 2% amino acid, 8 treatments with interval of 2 weeks, non-treatment group up to 50%
# Experimental: Specifically, the test was carried out with an interval of 2 weeks during the cultivation period of strawberry. Length of 5M was set as a single section and foliar application was performed for three sections. For each section, 100 strawberries were randomly selected and incidence rate of the disease was determined. As a treatment process, each amino acid was diluted to concentration of 2% in 15 liter distilled water, and the mixture (5 liter) was applied to each section. The treatment was carried out 8 times with an interval of 2 weeks.
structure (smiles),measurement,value
N[C@@H](Cc1c[nH]c2ccccc12)C(=O)O [tryptophan],incidence rate of bloom blight,less than 20%
